In publication PMC11508440:
Results are given in words; binding and its absence hold for the method and conditions named. Binding seen in cells or lysates may run through a third protein. Some binding calls cover weakened binding; strength is not graded here.

By UniProt entry, the sequences of proteins in these tests, tags left out.
UniProt Q12983: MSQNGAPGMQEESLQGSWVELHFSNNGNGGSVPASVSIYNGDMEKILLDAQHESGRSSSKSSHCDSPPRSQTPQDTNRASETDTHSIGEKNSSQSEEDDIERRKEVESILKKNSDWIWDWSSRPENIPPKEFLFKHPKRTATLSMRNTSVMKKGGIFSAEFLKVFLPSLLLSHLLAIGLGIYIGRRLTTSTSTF
UniProt Q16665: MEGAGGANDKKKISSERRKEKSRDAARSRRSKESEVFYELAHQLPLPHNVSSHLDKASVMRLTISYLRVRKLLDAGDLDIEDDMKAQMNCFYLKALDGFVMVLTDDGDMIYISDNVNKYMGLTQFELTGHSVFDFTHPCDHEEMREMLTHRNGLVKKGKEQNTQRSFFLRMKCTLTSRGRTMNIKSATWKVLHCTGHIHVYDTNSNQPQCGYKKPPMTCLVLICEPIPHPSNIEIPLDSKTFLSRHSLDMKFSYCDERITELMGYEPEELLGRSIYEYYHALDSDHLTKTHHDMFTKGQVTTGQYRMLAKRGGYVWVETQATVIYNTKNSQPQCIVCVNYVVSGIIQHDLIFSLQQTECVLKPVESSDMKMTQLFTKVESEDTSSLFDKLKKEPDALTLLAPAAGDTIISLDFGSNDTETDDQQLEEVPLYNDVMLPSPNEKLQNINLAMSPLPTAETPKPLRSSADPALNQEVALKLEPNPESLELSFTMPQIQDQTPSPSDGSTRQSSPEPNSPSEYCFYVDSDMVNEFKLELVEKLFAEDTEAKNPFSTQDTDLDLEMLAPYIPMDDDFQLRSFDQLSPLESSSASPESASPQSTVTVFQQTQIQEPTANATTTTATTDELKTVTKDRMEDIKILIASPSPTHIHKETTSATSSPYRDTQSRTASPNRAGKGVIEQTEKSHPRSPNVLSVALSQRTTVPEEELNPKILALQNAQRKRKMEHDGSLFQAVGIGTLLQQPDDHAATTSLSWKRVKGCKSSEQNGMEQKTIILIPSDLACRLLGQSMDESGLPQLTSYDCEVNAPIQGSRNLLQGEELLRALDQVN
UniProt P42224: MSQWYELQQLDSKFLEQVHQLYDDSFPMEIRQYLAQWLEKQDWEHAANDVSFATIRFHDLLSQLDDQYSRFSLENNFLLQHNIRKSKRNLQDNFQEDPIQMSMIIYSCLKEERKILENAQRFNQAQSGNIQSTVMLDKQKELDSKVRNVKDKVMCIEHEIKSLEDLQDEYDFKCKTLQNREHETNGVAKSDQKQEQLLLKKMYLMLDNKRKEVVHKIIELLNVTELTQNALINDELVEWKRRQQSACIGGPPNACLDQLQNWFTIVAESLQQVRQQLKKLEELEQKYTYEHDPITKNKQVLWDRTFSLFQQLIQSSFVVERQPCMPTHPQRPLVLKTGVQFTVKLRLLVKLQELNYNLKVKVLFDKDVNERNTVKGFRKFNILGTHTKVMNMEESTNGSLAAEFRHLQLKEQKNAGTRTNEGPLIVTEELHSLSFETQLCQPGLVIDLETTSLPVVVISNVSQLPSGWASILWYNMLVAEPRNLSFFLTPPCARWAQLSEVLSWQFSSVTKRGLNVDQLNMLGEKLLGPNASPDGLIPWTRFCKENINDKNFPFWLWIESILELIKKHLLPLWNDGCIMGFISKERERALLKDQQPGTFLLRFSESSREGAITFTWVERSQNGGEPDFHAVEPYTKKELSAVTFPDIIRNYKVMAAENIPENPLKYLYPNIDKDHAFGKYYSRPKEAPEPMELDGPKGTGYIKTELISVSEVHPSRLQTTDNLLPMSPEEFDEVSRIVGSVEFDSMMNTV

Experiments:
[1] = biological target: BNIP3 (human (endogenous in KGN)) (UniProt Q12983); assay: co-IP; endogenous proteins of granulosa cells; antibodies the same as for Western blotting; procedure according to ref. 8; which partner was precipitated is not told
[2] = biological target: HIF1α (human (endogenous in KGN)) (UniProt Q16665); assay: as above

| binding [1] | binding [2] | Substance |
| --- | --- | --- |
| binds | – | HIF1α (from UniProt Q16665 1-826) |
| – | binds | Signal transducer and activator of transcription 1 (STAT1) (from UniProt P42224 1-750) |
